# The other results are listed elsewhere or left out.
# Experiments:
# Assay in all cases: glycan array binding signal (z-score within array); higher = stronger binding
# Settings in all cases: glycan notation: IUPAC condensed, linker removed
# [1] = target: GalNAc(b1-4)GlcNAc(b1-2)Man
# In short: (§1)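 Glycan array data came from 3228 arrays in the Consortium for Functional Glycomics database, and only arrays with an available protein sequence were kept. Glycan names were put into IUPAC-condensed notation, and columns mapping to the same glycan were averaged. The binding signal is a within-array Z-score, averaged across arrays of one protein sequence run at different concentrations or buffers and across linkers. A negative Z-score can be read as non-binding.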
# [2] = target: GalNAc(b1-4)GlcNAc(b1-2)Man(a1-3)[GalNAc(b1-4)GlcNAc(b1-2)Man(a1-6)]Man(b1-4)GlcNAc(b1-4)GlcNAc
# In short: as §1
# [3] = target: GalNAc(b1-4)GlcNAc(b1-3)GalNAc(b1-4)GlcNAc
# In short: as §1
# GalNAc(b1-4)GlcNAc6S = target: GalNAc(b1-4)GlcNAc6S
# In short: as §1
# GalNAc(b1-6)GalNAc = target: GalNAc(b1-6)GalNAc
# In short: as §1
# GalNAc3S(b1-4)GlcNAc = target: GalNAc3S(b1-4)GlcNAc
# In short: as §1
# GalNAc3S(b1-4)GlcNAc3S = target: GalNAc3S(b1-4)GlcNAc3S
# In short: as §1
# [4] = target: GalNAc3S(b1-4)[Fuc(a1-3)]GlcNAc
# In short: as §1
# GalNAc4S6S(b1-4)GlcNAc = target: GalNAc4S6S(b1-4)GlcNAc
# In short: as §1
# GalNAc6S(b1-4)GlcNAc = target: GalNAc6S(b1-4)GlcNAc
# In short: as §1
# Glc(a1-4)Glc = target: Glc(a1-4)Glc
# In short: as §1
# [5] = target: Glc(a1-4)Glc(a1-4)Glc(a1-4)Glc
# In short: as §1
# Glc(a1-6)Glc(a1-6)Glc = target: Glc(a1-6)Glc(a1-6)Glc
# In short: as §1
# [6] = target: Glc(a1-6)Glc(a1-6)Glc(a1-6)Glc
# In short: as §1
# Glc(b1-4)Glc = target: Glc(b1-4)Glc
# In short: as §1
# Glc(b1-6)Glc = target: Glc(b1-6)Glc
# In short: as §1
# GlcA(b1-3)Gal = target: GlcA(b1-3)Gal
# In short: as §1
# GlcA(b1-3)GlcNAc = target: GlcA(b1-3)GlcNAc
# In short: as §1
# GlcA(b1-6)Gal = target: GlcA(b1-6)Gal
# In short: as §1
# [7] = target: GlcA3S(b1-3)Gal(b1-4)GlcNAc(b1-2)Man
# In short: as §1
# [8] = target: GlcA3S(b1-3)Gal(b1-4)GlcNAc(b1-3)Gal(b1-4)Glc
# In short: as §1
# [9] = target: GlcNAc(a1-3)Gal(b1-4)GlcNAc
# In short: as §1
# [10] = target: GlcNAc(a1-4)Gal(b1-3)GlcNAc
# In short: as §1
# [11] = target: GlcNAc(a1-4)Gal(b1-4)GalNAc
# In short: as §1
# [12] = target: GlcNAc(a1-4)Gal(b1-4)GlcNAc
# In short: as §1
# [13] = target: GlcNAc(a1-4)Gal(b1-4)GlcNAc(b1-3)Gal(b1-4)Glc
# In short: as §1
# [14] = target: GlcNAc(a1-4)Gal(b1-4)GlcNAc(b1-3)Gal(b1-4)GlcNAc
# In short: as §1
# [15] = target: GlcNAc(a1-4)Gal(b1-4)GlcNAc(b1-3)Gal(b1-4)GlcNAc(b1-3)Gal(b1-4)GlcNAc
# In short: as §1
# [16] = target: GlcNAc(a1-4)Gal(b1-4)GlcNAc(b1-3)Gal(b1-4)[Fuc(a1-3)]GlcNAc(b1-3)Gal(b1-4)[Fuc(a1-3)]GlcNAc
# In short: as §1
# [17] = target: GlcNAc(a1-6)Gal(b1-4)GlcNAc
# In short: as §1
# [18] = target: GlcNAc(b1-2)Gal(b1-3)GalNAc
# In short: as §1
# [19] = target: GlcNAc(b1-2)Man(a1-3)[GlcNAc(b1-2)Man(a1-6)]Man(b1-4)GlcNAc(b1-4)GlcNAc
# In short: as §1
# [20] = target: GlcNAc(b1-2)Man(a1-3)[GlcNAc(b1-2)Man(a1-6)]Man(b1-4)GlcNAc(b1-4)[Fuc(a1-6)]GlcNAc
# In short: as §1
# [21] = target: GlcNAc(b1-2)Man(a1-3)[GlcNAc(b1-4)][GlcNAc(b1-2)Man(a1-6)]Man(b1-4)GlcNAc(b1-4)GlcNAc
# In short: as §1
# [22] = target: GlcNAc(b1-2)Man(a1-3)[GlcNAc(b1-4)][GlcNAc(b1-2)Man(a1-6)]Man(b1-4)GlcNAc(b1-4)[Fuc(a1-6)]GlcNAc
# In short: as §1
# [23] = target: GlcNAc(b1-2)[GlcNAc(b1-4)]Man(a1-3)[GlcNAc(b1-2)Man(a1-6)]Man(b1-4)GlcNAc(b1-4)GlcNAc
# In short: as §1
# [24] = target: GlcNAc(b1-2)[GlcNAc(b1-4)]Man(a1-3)[GlcNAc(b1-4)][GlcNAc(b1-2)Man(a1-6)]Man(b1-4)GlcNAc(b1-4)GlcNAc
# In short: as §1
# [25] = target: GlcNAc(b1-2)[GlcNAc(b1-4)]Man(a1-3)[GlcNAc(b1-4)][GlcNAc(b1-2)[GlcNAc(b1-6)]Man(a1-6)]Man(b1-4)GlcNAc(b1-4)GlcNAc
# In short: as §1
# [26] = target: GlcNAc(b1-2)[GlcNAc(b1-4)]Man(a1-3)[GlcNAc(b1-4)][GlcNAc(b1-2)[GlcNAc(b1-6)]Man(a1-6)]Man(b1-4)GlcNAc(b1-4)[Fuc(a1-6)]GlcNAc
# In short: as §1
# [27] = target: GlcNAc(b1-2)[GlcNAc(b1-6)]Man(a1-6)[GlcNAc(b1-2)Man(a1-3)]Man(b1-4)GlcNAc(b1-4)GlcNAc
# In short: as §1
# [28] = target: GlcNAc(b1-2)[GlcNAc(b1-6)]Man(a1-6)[GlcNAc(b1-2)Man(a1-3)]Man(b1-4)GlcNAc(b1-4)[Fuc(a1-6)]GlcNAc
# In short: as §1
# [29] = target: GlcNAc(b1-2)[GlcNAc(b1-6)]Man(a1-6)[GlcNAc(b1-4)][GlcNAc(b1-2)Man(a1-3)]Man(b1-4)GlcNAc(b1-4)GlcNAc
# In short: as §1
# GlcNAc(b1-3)Fuc = target: GlcNAc(b1-3)Fuc
# In short: as §1
# GlcNAc(b1-3)Gal = target: GlcNAc(b1-3)Gal
# In short: as §1
# [30] = target: GlcNAc(b1-3)Gal(b1-3)GalNAc
# In short: as §1
binder,measurement,setting,value
Thrombomodulin Lectin (Mus musculus) (protein) LSALAKLQPTGSQCVEHECFALFQGPATFLDASQACQRLQGHLMTVRSSVAADVISLLLSQSSMDLGPWIGLQLPQGCDDPVHLGPLRGFQWVTGDNHTSYSRWARPNDQTAPLCGPLCVTVSTATEAAPGEPAWEEKPCETETQGFLCEFYFTASCRVDPIPVREDTKEEEGAGEPPVSPTPGSPTGPPSARPVLDEPRVPITQNPCPPLKECPPCAAPDLEGGPSVFIFPPKIKDVLMISLSPMVTCVVVDVSEDDPDVQISWFVNNVEVHTAQTQTHREDYNSTLRVVSALPIQHQDWMSGKAFACAVNNRALPSPIEKTISKPRGPVRAPQVYVLPPPAEEMTKKEFSLTCMITGFLPAEIAVDWTSNGRTEQNYKNTATVLDSDGSYFMYSKLRVQKSTWERGSLFACSVVHEGLHNHLTTKTISRSLGK,glycan array binding signal (z-score),[1],0.427
same,glycan array binding signal (z-score),[2],0.023
same,glycan array binding signal (z-score),[3],-0.101
same,glycan array binding signal (z-score),GalNAc(b1-4)GlcNAc6S,0.18
same,glycan array binding signal (z-score),GalNAc(b1-6)GalNAc,0.92
same,glycan array binding signal (z-score),GalNAc3S(b1-4)GlcNAc,0.187
same,glycan array binding signal (z-score),GalNAc3S(b1-4)GlcNAc3S,0.538
same,glycan array binding signal (z-score),[4],1.34
same,glycan array binding signal (z-score),GalNAc4S6S(b1-4)GlcNAc,1.6
same,glycan array binding signal (z-score),GalNAc6S(b1-4)GlcNAc,0.468
same,glycan array binding signal (z-score),Glc(a1-4)Glc,0.733
same,glycan array binding signal (z-score),[5],0.317
same,glycan array binding signal (z-score),Glc(a1-6)Glc(a1-6)Glc,-0.53
same,glycan array binding signal (z-score),[6],1.9
same,glycan array binding signal (z-score),Glc(b1-4)Glc,-0.324
same,glycan array binding signal (z-score),Glc(b1-6)Glc,0.351
same,glycan array binding signal (z-score),GlcA(b1-3)Gal,-0.555
same,glycan array binding signal (z-score),GlcA(b1-3)GlcNAc,0.119
same,glycan array binding signal (z-score),GlcA(b1-6)Gal,1.32
same,glycan array binding signal (z-score),[7],-0.496
same,glycan array binding signal (z-score),[8],-1.51
same,glycan array binding signal (z-score),[9],-1.21
same,glycan array binding signal (z-score),[10],0.075
same,glycan array binding signal (z-score),[11],1.42
same,glycan array binding signal (z-score),[12],0.354
same,glycan array binding signal (z-score),[13],-0.582
same,glycan array binding signal (z-score),[14],1.67
same,glycan array binding signal (z-score),[15],-0.346
same,glycan array binding signal (z-score),[16],0.73
same,glycan array binding signal (z-score),[17],1.09
same,glycan array binding signal (z-score),[18],-0.073
same,glycan array binding signal (z-score),[19],-0.521
same,glycan array binding signal (z-score),[20],-0.281
same,glycan array binding signal (z-score),[21],-0.823
same,glycan array binding signal (z-score),[22],0.81
same,glycan array binding signal (z-score),[23],0.317
same,glycan array binding signal (z-score),[24],-0.665
same,glycan array binding signal (z-score),[25],-0.06
same,glycan array binding signal (z-score),[26],0.208
same,glycan array binding signal (z-score),[27],-0.201
same,glycan array binding signal (z-score),[28],-0.017
same,glycan array binding signal (z-score),[29],-1.3
same,glycan array binding signal (z-score),GlcNAc(b1-3)Fuc,0.309
same,glycan array binding signal (z-score),GlcNAc(b1-3)Gal,1.25
same,glycan array binding signal (z-score),[30],0.666

# In a second layout: entries from further up
binder | measurement | setting | value
Thrombomodulin Lectin (Mus musculus) (protein) LSALAKLQPTGSQCVEHECFALFQGPATFLDASQACQRLQGHLMTVRSSVAADVISLLLSQSSMDLGPWIGLQLPQGCDDPVHLGPLRGFQWVTGDNHTSYSRWARPNDQTAPLCGPLCVTVSTATEAAPGEPAWEEKPCETETQGFLCEFYFTASCRVDPIPVREDTKEEEGAGEPPVSPTPGSPTGPPSARPVLDEPRVPITQNPCPPLKECPPCAAPDLEGGPSVFIFPPKIKDVLMISLSPMVTCVVVDVSEDDPDVQISWFVNNVEVHTAQTQTHREDYNSTLRVVSALPIQHQDWMSGKAFACAVNNRALPSPIEKTISKPRGPVRAPQVYVLPPPAEEMTKKEFSLTCMITGFLPAEIAVDWTSNGRTEQNYKNTATVLDSDGSYFMYSKLRVQKSTWERGSLFACSVVHEGLHNHLTTKTISRSLGK | glycan array binding signal (z-score) | [21] | -0.823
same | glycan array binding signal (z-score) | [22] | 0.81
same | glycan array binding signal (z-score) | [23] | 0.317

# — the supplement of paper PMC8728848
